Test results from patent publication US8808879B2, “Phototherapy devices and methods comprising substituted carbazole compounds” (Nitto Denko Corporation, priority 2010, dated 2014).
At least one structure is not confirmed: it was looked up by name or label, or the drawing left a doubt.

System: actinic keratoses
Assay: Photodynamic treatment of actinic keratoses lesions with topical photosensitiser pro-drug and red OLED
Settings: 16.8% topical cream, excess removed with saline, illuminated with red OLED

In the case of `COC(=O)CCC(=O)CN.Cl` [methyl aminolevulinate, Methyl aminolevulinate], the “number or severity of the lesions after the treatment” value is reported as “reduced”.
